This passage reports binding results from PMC9412818.

Protein sequences, listed by entry. Tags and fused reporters are not part of them.
UniProt Q6U7I1: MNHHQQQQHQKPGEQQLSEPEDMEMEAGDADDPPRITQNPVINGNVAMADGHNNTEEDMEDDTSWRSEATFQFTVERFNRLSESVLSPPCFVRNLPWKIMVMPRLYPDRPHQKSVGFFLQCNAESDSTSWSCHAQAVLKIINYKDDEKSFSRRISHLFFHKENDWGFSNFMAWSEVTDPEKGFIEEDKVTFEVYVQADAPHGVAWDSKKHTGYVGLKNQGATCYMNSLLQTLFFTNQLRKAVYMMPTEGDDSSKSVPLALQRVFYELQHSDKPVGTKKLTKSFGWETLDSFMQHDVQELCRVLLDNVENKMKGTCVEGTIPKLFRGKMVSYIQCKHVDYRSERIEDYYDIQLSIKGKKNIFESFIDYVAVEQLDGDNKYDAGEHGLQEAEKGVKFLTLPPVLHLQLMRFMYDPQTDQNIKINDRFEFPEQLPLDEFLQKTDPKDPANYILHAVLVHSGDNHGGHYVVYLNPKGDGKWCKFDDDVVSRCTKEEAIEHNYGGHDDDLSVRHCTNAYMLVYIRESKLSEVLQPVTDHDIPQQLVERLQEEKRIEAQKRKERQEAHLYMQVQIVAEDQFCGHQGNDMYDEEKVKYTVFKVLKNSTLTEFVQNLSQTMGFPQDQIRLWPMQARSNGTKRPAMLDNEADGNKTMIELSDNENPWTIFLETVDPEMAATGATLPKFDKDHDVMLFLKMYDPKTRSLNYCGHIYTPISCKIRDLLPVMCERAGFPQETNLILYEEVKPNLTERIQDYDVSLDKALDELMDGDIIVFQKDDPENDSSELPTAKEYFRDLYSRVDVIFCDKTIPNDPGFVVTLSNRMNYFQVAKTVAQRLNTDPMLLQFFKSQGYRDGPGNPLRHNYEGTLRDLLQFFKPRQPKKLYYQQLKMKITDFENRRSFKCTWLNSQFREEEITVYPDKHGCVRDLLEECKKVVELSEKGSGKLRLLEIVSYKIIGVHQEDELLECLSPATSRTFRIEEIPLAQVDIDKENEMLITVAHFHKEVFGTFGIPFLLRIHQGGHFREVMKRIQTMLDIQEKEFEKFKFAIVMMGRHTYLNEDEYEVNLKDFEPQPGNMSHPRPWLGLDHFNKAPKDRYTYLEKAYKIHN

The target of the assay is chicken USP7 (chUSP7), MYC-tagged (chicken) (UniProt Q6U7I1). Kind of assay: co-IP; DF1 cells co-transfected, lysed 24 h later in RIPA buffer (50 mM Tris-HCl pH 7.4, 150 mM NaCl, 0.25% deoxycholic acid, 1 mM EDTA, 1% NP-40, 0.5% SDS); precipitated with anti-MYC beads overnight at 4°C; immunoblot.

No constants are given. Whether binding was seen depends on the method and setting. In cells and extracts the contact can be indirect. Some entries that bind do so weakly or less than the wild type. Tags and fused reporters may be left off the sequences shown.

B1: chicken MyD88 (chMyD88), 3xFLAG-tagged (protein, UniProt A5HNF6 1-299)
chain: MATVPVGAGSAPGPEPADLHSVPMVALNYGVRRRLGLYLNPRAATAADWTALAEKLGHDYLEIRRLEALPDPTAALLEEWQSRCPGGATVGQLLELLRQLGRHDVLLELGGSVEEDCKKYLRRKQQEAEQPLQVPAVDSSVPKTSELMGITTRDDPYGHGTEMFDAFICYCQKDLQFVQEMIRELEQTEFKLKLCVFDRDVLPGTCVWSISGELIERRCRRMVVVISDDYLESDECDFQTKFALSLSPGARLKRLIPVKCKTMKNEFPSILRFITICDYTNPCTKKWFWTRLAKSLLLP
In the case of B1, the binding entry is on record as “binds”.
